Several values for one entry are separate records, joined by “and”; a condition that tells them apart may be missing. How the calls were made is not given here. Equal entries are not always repeated.
System: SARS-CoV-2
Assay type: cell-based
[1] = 1 uM, single replicate, relative to negative control DMSO
[2] = 5 uM, single replicate, relative to negative control DMSO

Cc1ccccc1-n1c(Cn2nc(-c3cccc(O)c3)c3c(N)ncnc32)nc2cccc(C)c2c1=O [PIK-294, pik-294]
HIT (2 Std, 1 uM) (1 uM): HIT
Average Infection (1 uM) (1 uM, average log2FC infection (n=3) relative to DMSO): −0.485
% Infection (1 uM) (1 uM, single replicate of triplicate): 18.59% and 21.04% and 16.9%
Normalized Infection (1 uM) [1]: 0.7078 and 0.8011 and 0.6433
log2FC Infection (1 uM) [1]: −0.4986 and −0.32 and −0.6365
Average Infection (5 uM) (5 uM, average log2FC infection (n=3) relative to DMSO): −0.3549
% Infection (5 uM) (5 uM, single replicate of triplicate): 15.69% and 11.58% and 9.607%
Normalized Infection (5 uM) [2]: 1.019 and 0.7518 and 0.6239
log2FC Infection (5 uM) [2]: 0.02752 and −0.4115 and −0.6806
HIT (overall, 1 or 5 uM): Yes
